Measured values taken from patent US20160177397, “APTAMER FOR DETECTION OF ALPHA-METHYLACYL-COA RACEMASE AND DIAGNOSTIC KIT THEREOF” (NATIONAL TAIWAN UNIVERSITY, published 2016).

What was measured:
[1] = target: T1, AMACR (endogenous, in prostate cancer cell lysate) (Homo sapiens) (UniProt Q9UHK6); test: binding assay; conditions: ELAA on coated cell lysates; 22Rv1 responsive; LNCaP signal higher than PC3; protein in an extract; protein details: 22Rv1, LNCaP and PC3 cell lysates; label: biotin; single-stranded DNA
T1 sequence (looked up, limits assumed): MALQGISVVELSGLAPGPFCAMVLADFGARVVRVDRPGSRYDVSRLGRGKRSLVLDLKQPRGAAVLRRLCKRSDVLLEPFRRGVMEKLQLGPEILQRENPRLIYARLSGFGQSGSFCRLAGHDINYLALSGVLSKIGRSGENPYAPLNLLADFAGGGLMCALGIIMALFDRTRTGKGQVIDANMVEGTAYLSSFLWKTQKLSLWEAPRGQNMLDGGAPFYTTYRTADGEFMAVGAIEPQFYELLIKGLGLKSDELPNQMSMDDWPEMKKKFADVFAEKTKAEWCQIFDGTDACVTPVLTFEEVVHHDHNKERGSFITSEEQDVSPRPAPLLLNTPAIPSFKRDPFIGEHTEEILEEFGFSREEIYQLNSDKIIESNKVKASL

[2] = target: T2, AMACR (endogenous, in fixed 22Rv1 cells) (Homo sapiens) (UniProt Q9UHK6); test: binding assay; conditions: confocal staining of fixed 22Rv1 cells, cytoplasmic signal, 1 uM aptamer; protein in cells; label: FAM; single-stranded DNA; variant of AMC51
T2 sequence (looked up, limits assumed): T1 sequence (looked up, limits assumed)

Sequence	binding result [1]	binding result [2]
CCCTACGGCGCTAACCCATGCTACGAATTCGTTGTTAAACAATAGGCCACCGTGCTACAA [AMC51]	binds	–
CCCTACGGCGCTAACCCATGCTACGAATTCGTTGTTAAACAATAGGCCACCGTGCTACAA [FAM-AMC51]	–	binds

Results from cells or extracts need not show a direct contact. Tags and fusion partners may be left off the protein sequences shown.
